The text below walks through data of PMC12320230, “BAY11-7082 Targets RNF25 to Reverse TRIP4 Ubiquitination-dependent NF-κB Activation and Apoptosis Resistance in Renal Cell Carcinoma” (International Journal of Biological Sciences, 2025).

The chains behind the UniProt entries cited, without tags or fusion partners.
UniProt Q04206: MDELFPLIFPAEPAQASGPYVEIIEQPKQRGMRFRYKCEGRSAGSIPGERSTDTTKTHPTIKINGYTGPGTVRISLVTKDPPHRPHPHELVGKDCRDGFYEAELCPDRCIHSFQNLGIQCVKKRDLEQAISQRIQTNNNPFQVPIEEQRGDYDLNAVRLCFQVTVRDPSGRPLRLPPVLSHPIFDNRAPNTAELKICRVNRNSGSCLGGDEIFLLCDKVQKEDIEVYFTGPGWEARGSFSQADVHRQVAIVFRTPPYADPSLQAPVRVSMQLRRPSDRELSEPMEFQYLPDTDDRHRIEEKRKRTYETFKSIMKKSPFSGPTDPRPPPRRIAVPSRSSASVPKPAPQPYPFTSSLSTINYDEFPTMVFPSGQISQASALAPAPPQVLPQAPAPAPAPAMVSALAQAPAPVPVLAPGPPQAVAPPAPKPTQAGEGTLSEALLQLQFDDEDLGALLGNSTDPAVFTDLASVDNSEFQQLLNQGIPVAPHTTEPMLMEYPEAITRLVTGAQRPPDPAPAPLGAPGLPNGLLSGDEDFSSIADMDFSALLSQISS

For one experiment, the target named is T1, Flag-tagged RNF25 (UniProt Q96BH1).
T1 sequence: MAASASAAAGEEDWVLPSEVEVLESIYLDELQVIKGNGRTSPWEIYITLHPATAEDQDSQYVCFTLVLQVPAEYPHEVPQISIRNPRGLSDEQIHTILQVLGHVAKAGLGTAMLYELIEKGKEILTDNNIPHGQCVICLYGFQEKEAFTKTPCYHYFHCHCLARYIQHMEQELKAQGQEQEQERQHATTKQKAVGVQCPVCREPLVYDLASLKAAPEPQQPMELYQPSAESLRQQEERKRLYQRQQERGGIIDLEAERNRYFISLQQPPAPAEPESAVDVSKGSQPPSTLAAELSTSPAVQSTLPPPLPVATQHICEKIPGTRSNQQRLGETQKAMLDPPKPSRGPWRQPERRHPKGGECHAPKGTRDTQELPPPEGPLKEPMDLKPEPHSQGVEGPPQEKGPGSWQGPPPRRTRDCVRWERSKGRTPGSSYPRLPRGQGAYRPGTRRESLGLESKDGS
Put plainly: affinity purification with mass spectrometry; 293T cells transfected with Flag-tagged RNF25 or HA-tagged p65, 48 h; lysed in IP buffer; Flag- or HA-conjugated agarose beads; elution with 2% SDS; LC-MS.

Another experiment concerns the target HA-tagged p65 (UniProt Q04206). Described as above.

These are yes or no findings as the source states them, for the method shown. Binding seen in cells or lysates may run through a third protein. These calls come from enrichment with a bait or labelling near it, and not all partners need be listed. For some assays here: Tags and fused reporters may be left off the sequences shown.

B1: TRIP4 (protein, UniProt Q15650 1-581)
chain: MAVAGAVSGEPLVHWCTQQLRKTFGLDVSEEIIQYVLSIESAEEIREYVTDLLQGNEGKKGQFIEELITKWQKNDQELISDPLQQCFKKDEILDGQKSGDHLKRGRKKGRNRQEVPAFTEPDTTAEVKTPFDLAKAQENSNSVKKKTKFVNLYTREGQDRLAVLLPGRHPCDCLGQKHKLINNCLICGRIVCEQEGSGPCLFCGTLVCTHEEQDILQRDSNKSQKLLKKLMSGVENSGKVDISTKDLLPHQELRIKSGLEKAIKHKDKLLEFDRTSIRRTQVIDDESDYFASDSNQWLSKLERETLQKREEELRELRHASRLSKKVTIDFAGRKILEEENSLAEYHSRLDETIQAIANGTLNQPLTKLDRSSEEPLGVLVNPNMYQSPPQWVDHTGAASQKKAFRSSGFGLEFNSFQHQLRIQDQEFQEGFDGGWCLSVHQPWASLLVRGIKRVEGRSWYTPHRGRLWIAATAKKPSPQEVSELQATYRLLRGKDVEFPNDYPSGCLLGCVDLIDCLSQKQFKEQFPDISQESDSPFVFICKNPQEMVVKFPIKGNPKIWKLDSKIHQGAKKGLMKQNKAV
On to B1, for which the binding result with Flag-tagged RNF25 and in the experiment with HA-tagged p65 was “binds” each time.
